Laboratory results reported in paper PMC4729438.

Protein sequences, listed by entry. Tags and fused reporters are not part of them. Residues count along the entry.
UniProt Q07021, residues 74-282: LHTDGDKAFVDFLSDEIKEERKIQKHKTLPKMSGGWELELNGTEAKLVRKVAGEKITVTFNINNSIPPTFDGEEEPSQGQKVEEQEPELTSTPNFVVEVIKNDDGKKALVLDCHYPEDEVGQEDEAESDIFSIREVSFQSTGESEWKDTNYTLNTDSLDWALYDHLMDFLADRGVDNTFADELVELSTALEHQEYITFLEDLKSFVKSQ

Target: DUX4 homeodomain mutant defective in DNA binding (HOX1.V5) (human) (UniProt Q9UBX2)
Test: co-IP; HEK293 cells transfected with V5-tagged DUX4 constructs, alone or with Myc-DDK-tagged partners; lysate in 137 mM NaCl, 10 mM Tris-HCl pH 7.4, 1% NP40; IP with V5- or Myc-antibody agarose 16-20 h at 4 °C; western blot

With “C1QBP, endogenous in human cells (from UniProt Q07021 74-282)” the binding was “binds”.

Results are given in words; binding and its absence hold for the method and conditions named. Binding seen in cells or lysates may run through a third protein. A result given as binding can be weak or reduced; the word gives no strength.
